Patent US20150078996A1 (Merck Sharp & Dohme, published 2015)
These are yes or no findings as the source states them, for the method shown. Some results given as binding are weak or reduced against the parent protein; the word gives no strength.

Sequences of proteins named here, by UniProt entry; tags and fusion partners are left off. A change or cut given only in a name is not applied to a line headed by its entry. Residues count along the entry.
UniProt P08069: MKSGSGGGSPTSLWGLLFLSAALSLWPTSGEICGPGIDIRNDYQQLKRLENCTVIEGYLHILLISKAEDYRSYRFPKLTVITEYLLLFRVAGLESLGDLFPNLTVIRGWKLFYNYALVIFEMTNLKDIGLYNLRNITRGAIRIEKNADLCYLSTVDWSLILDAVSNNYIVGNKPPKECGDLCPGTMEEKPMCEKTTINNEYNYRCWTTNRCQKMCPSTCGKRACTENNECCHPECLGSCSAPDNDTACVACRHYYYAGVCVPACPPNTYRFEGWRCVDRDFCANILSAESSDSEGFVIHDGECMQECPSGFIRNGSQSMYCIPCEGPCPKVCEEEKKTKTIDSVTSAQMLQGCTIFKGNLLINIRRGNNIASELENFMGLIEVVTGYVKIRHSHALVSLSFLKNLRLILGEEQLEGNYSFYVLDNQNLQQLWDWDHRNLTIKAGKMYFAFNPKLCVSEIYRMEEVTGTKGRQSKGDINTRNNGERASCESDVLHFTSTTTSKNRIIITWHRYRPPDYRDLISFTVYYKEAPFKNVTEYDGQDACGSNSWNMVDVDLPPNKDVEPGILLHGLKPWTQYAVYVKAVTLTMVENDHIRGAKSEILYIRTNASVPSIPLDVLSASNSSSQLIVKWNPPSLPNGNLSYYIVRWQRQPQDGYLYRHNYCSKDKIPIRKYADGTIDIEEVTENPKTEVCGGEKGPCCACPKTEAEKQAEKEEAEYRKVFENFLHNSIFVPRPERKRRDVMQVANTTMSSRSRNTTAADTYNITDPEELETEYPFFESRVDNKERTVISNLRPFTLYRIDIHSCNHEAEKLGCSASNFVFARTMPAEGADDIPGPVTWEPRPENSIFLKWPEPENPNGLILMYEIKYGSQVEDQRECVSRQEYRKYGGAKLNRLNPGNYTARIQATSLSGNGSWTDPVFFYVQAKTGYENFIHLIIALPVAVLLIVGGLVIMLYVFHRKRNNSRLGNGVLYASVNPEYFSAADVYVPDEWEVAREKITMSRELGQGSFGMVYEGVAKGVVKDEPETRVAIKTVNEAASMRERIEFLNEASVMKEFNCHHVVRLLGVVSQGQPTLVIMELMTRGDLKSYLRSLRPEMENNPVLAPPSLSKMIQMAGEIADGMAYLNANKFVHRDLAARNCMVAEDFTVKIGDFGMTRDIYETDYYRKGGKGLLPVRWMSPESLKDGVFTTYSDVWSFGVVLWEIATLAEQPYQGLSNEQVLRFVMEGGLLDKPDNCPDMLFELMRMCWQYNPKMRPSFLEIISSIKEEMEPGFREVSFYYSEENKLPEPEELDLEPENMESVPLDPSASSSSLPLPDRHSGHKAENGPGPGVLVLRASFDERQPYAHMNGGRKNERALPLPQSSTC
IGF-IR expressed on baculovirus-infected Sf9 insect cells: residues 31-1367 of P08069
human recombinant IGF-IR (immunogen and ELISA antigen): residues 31-932 of P08069

What was measured:
[1] = target: IGF-IR expressed on baculovirus-infected Sf9 insect cells (UniProt P08069); experiment: flow cytometry on Sf9 cells expressing IGF-IR
[2] = target: human recombinant IGF-IR (immunogen and ELISA antigen) (human) (UniProt P08069); experiment: ELISA on plates coated with human recombinant IGF-IR

B1: mouse monoclonal antibody 12B1 (anti-IGF-1R) (antibody, mouse IgG1, V domains shown)
VH: QVQLKESGPDLVAPSQSLSITCTVSGFSLTNYGVHWVRQFPGKGLEWLGVIWAGGNTNYNSALMSRLTISKDNSKSQVFLKMNSLQTDDTAVYYCAREYGSTYVAWFAHWGQGTLVTVSS
VL: ENVLTQSPAIMSASPGEKVTMTCGASSSVSSSFLHWYQQKSGASPKLWIYSTSNLASGVPTRFSGSGSGTSYSLTISSVEAEDAATYYCQQYSGYPLTFGAGTKLELK
notes: also called MAb 12B1; clone 12B1
binding [1]: binds
binding [2]: binds
